# Measured values as given in patent publication US20260365991A1, “COMPOUNDS FOR STABILIZING PEPTIDES IN BIOLOGICAL SAMPLES” (Roche Diagnostics Operations, Inc., priority 2023, published 2026).
# Not every detail of the peptide structures is certain; ends, links or a residue may be inferred.
# Assay: Gastrin-17 degradation in horse serum (Example 4, UV chromatogram / peptide mapping)
# Assay type: biochemical
# Settings: role: substrate, 0 h vs 5 h, room temperature
smiles,measurement,value
CSCC[C@H](NC(=O)[C@H](Cc1c[nH]c2ccccc12)NC(=O)CNC(=O)[C@H](Cc1ccc(O)cc1)NC(=O)[C@H](C)NC(=O)[C@H](CCC(=O)O)NC(=O)[C@H](CCC(=O)O)NC(=O)[C@H](CCC(=O)O)NC(=O)[C@H](CCC(=O)O)NC(=O)[C@H](CCC(=O)O)NC(=O)[C@H](CC(C)C)NC(=O)[C@H](Cc1c[nH]c2ccccc12)NC(=O)[C@@H]1CCCN1C(=O)CNC(=O)[C@@H]1CCC(=O)N1)C(=O)N[C@@H](CC(=O)O)C(=O)N[C@@H](Cc1ccccc1)C(N)=O [Gastrin-17],gastrin-17 peak change in UV chromatogram,peak becomes smaller and many other peaks arise
